Measurements: patent US20210324379A1 (priority 2018, published 2021)
For at least one compound, name, drawing or mass did not settle the structure.

System: ALS models
Assay: Pooled DNA barcoded drug screen of ALS models against 22 small molecules (FIG. 14/18)
Assay type: cell-based, yeast
Conditions: ten ALS models as mixed pool
Protocol: Y axis represents drugs screened at 10 uM. X axis represents protein modeled and which cell line. WT=Natural expression of drug transporters.

How did the “hit among >200 tested ALS gene-drug interactions” value turn out when CC1=C(O)C(=O)C=C2C1=CC=C1[C@@]2(C)CC[C@@]2(C)[C@@H]3C[C@](C)(C(=O)O)CC[C@]3(C)CC[C@]12C [Celastrol] was run?
Its value is “potential hits”.
